Data from patent US8962830B2, “Protein kinase inhibitors and methods of treatment” (The Walter and Eliza Hall Institute of Medical Research, priority 2010, dated 2015).
pIC50: −log10 of the molar value. Structures were worked out from names or drawings and are uncertain.

The chains behind the UniProt entries cited, without tags or fusion partners.
UniProt P12931, whole entry: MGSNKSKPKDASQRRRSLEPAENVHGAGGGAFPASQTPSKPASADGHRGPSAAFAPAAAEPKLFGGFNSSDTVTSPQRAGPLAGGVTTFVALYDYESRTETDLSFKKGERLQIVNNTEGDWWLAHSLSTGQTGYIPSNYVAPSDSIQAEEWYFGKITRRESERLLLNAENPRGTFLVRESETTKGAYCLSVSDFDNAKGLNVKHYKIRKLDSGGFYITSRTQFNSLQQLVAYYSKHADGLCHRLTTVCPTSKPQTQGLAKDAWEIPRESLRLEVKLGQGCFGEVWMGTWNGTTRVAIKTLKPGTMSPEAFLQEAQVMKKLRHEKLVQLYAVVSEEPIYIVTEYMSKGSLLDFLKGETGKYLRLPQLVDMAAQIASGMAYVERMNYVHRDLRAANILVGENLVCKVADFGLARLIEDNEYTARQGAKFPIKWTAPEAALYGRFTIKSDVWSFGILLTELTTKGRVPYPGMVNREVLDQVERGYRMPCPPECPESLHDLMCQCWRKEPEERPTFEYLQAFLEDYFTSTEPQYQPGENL

Molecular target: Src recombinant enzyme, N-terminally His6 tagged full-length human protein (Homo sapiens, UniProt P12931)
Test: SRC kinase inhibition assay (AlphaScreen)
Assay type: biochemical
Settings: read-out: IC50 (SRC); 80 μM ATP, 90 minutes at 30 degree Celsius; tested form: HBr

## CC(C)(CN)n1nc(-c2ccc(Cl)cc2)c2c(N)ncnc21
  pIC50: 6.00 to 7.00
